± gives the standard deviation of the averaged measurements. Over roughly 1,600 compounds, “normalized growth (OD600, IQM-normalized) in LPM” has its median near 1; the lowest 2% begin near 0.014. This is one part of the list.

The assay has as its system Salmonella enterica serovar Typhimurium SL1344. Briefly: normalized growth (OD600, IQM-normalized) in LPM (fraction of plate interquartile mean); higher = more bacterial growth (less inhibition). To be noted: LPM pH 5.8; 10 µM; 16 h.
As for `CC(=O)C1C(=O)C=C(C)OC1=O` (stereo not given), the normalized growth turned out to be 1.12 ± 0.37. Under `Nc1nc2[nH]cnc2c(=S)[nH]1` stands 0.63 ± 0.084. Under `O=C1c2c(O)cccc2C([C@@H]2O[C@H](CO)[C@@H](O)[C@H](O)[C@H]2O)c2cc(CO)cc(O)c21` (stereo not given in full) stands 1 ± 0.043; under `CO/N=C(\C(=O)N[C@@H]1C(=O)N2C(C(=O)O)=C(CSc3nnnn3C)CS[C@H]12)c1csc(N)n1`, 0.0243 ± 0.012; under `CC(C(=O)O)c1ccc2c(c1)[nH]c1ccc(Cl)cc12` (stereo not given), 1.037 ± 0.0088. `C[C@H]1O[C@@H](O[C@H]2[C@@H](O)C[C@H](O[C@H]3[C@@H](O)C[C@H](O[C@H]4CC[C@@]5(C)[C@H](CC[C@@H]6[C@@H]5C[C@@H](O)[C@]5(C)[C@@H](C7=CC(=O)OC7)CC[C@]65O)C4)O[C@@H]3C)O[C@@H]2C)C[C@H](O)[C@@H]1O` showed a normalized growth of 0.981 ± 0.04. For `CC(C(=O)O)c1ccc(-c2ccccc2)c(F)c1` (stereo not given) the value was 1.14 ± 0.11; for `COc1cc2c(N3CCN(C(=O)Nc4ccc(OC(C)C)cc4)CC3)ncnc2cc1OCCCN1CCCCC1`, 0.899 ± 0.0095; for `O=C(OCC(O)CO)c1ccccc1Nc1ccnc2cc(Cl)ccc12` (stereo not given), 0.937 ± 0.18.

In turn, `Cc1c(OCC(F)(F)F)ccnc1C[S@@+]([O-])c1nc2ccccc2[nH]1` displayed a normalized growth of 0.967 ± 0.085. For `Nc1nc2ccc(OC(F)(F)F)cc2s1` the value was 1.33 ± 0.093; for `CN1CCC(=C2c3ccccc3CCc3cccnc32)CC1`, 1.04 ± 0.013. With `OC[C@H]1O[C@H](O[C@]2(CCl)O[C@H](CCl)[C@@H](O)[C@@H]2O)[C@H](O)[C@@H](O)[C@H]1Cl`, the normalized growth amounted to 0.769 ± 0.13. For `CCOC(=O)O[C@]1(C(=O)COC(=O)CC)CC[C@H]2[C@@H]3CCC4=CC(=O)C=C[C@]4(C)[C@H]3[C@@H](O)C[C@@]21C` the value was 1 ± 0.03; for `O=C(O)c1cc(/N=N/c2ccc(O)c(C(=O)O)c2)ccc1O`, 0.998 ± 0.019; for `CC(=O)NCCCS(=O)(=O)O`, 0.949 ± 0.11.

On to `COc1ccc2c(c1OC)C(=O)O[C@@H]2[C@H]1c2c(cc3c(c2OC)OCO3)CCN1C`, for which the normalized growth was determined as 1.019 ± 0.0086. Take `C=C1c2c(Cl)ccc(O)c2C(=O)C2=C(O)[C@]3(O)C(=O)C(C(N)=O)=C(O)[C@@H](N(C)C)[C@@H]3[C@@H](O)[C@H]12.O=C(O)c1cc(S(=O)(=O)O)ccc1O`: the normalized growth stood at 0.0199 ± 0.00036.

The compound `CC(C)(C)NCC(O)COc1cccc2c1CCC(=O)N2` (stereo not given) gave a normalized growth of 0.905 ± 0.036. With `CNC[C@H](O)c1ccc(O)c(O)c1`, the normalized growth turned out to be 1.19 ± 0.046.

`CC(S)C(=O)NCC(=O)O` (stereo not given) displayed a normalized growth of 0.982 ± 0.071. As to `COc1ccc(OC)c(C(O)CNC(=O)CN)c1` (stereo not given), the normalized growth amounted to 0.885 ± 0.017. For `CN1CCN(CCCN2c3ccccc3Sc3ccc(C(F)(F)F)cc32)CC1` the value was 0.892 ± 0.11. Take `CC[C@H](C)[C@H](N)C1=N[C@H](C(=O)N[C@@H](CC(C)C)C(=O)N[C@H](CCC(=O)O)C(=O)N[C@H](C(=O)N[C@H]2CCCCNC(=O)[C@H](CC(N)=O)NC(=O)[C@@H](CC(=O)O)NC(=O)[C@H](Cc3cnc[nH]3)NC(=O)[C@@H](Cc3ccccc3)NC(=O)[C@H]([C@@H](C)CC)NC(=O)[C@@H](CCCN)NC2=O)[C@@H](C)CC)CS1`: the normalized growth was 1.06 ± 0.043. Under `CC(=O)NS(=O)(=O)c1ccc(NC(=O)c2ccccc2C(=O)O)cc1` stands 0.988 ± 0.044. Regarding `OC(CNCC(O)C1CCc2cc(F)ccc2O1)C1CCc2cc(F)ccc2O1` (stereo not given), the normalized growth came out at 1.14 ± 0.072. `CC(C)(C#N)c1cc(Cn2cncn2)cc(C(C)(C)C#N)c1`: the normalized growth is 0.85 ± 0.065.

In the case of `Oc1c(I)cc(Cl)c2cccnc12`, the normalized growth stood at 0.0675 ± 0.02. Under `CC(=O)c1ccc2c(c1)N(CCCN(C)C)c1ccccc1S2` stands 1.06 ± 0.075. For `CN(C)CCOC(C)(c1ccccc1)c1ccccn1` (stereo not given) the value was 1.03 ± 0.058. Under `C=CCNC(N)=S` stands 0.957 ± 0.025; under `Nc1ccn([C@H]2CC[C@@H](CO)O2)c(=O)n1`, 1.04 ± 0.027. The compound `COc1cc(/C=C/C(N)=O)cc(OC)c1OC` registered a normalized growth of 0.972 ± 0.033.

For `CN(C(=O)C(Cl)Cl)c1ccc(OC(=O)c2ccco2)cc1`, the normalized growth was found to be 0.986 ± 0.033. For `CCN(CC)CCc1nc(-c2ccccc2)no1` the value was 0.956 ± 0.062; for `CCc1cn([C@H]2C[C@H](O)[C@@H](CO)O2)c(=O)[nH]c1=O`, 0.664 ± 0.046; for `O=S(=O)(O)NC1CCCCC1`, 1.94 ± 0.16. As to `CC(NCCC(c1ccccc1)c1ccccc1)c1ccccc1` (stereo not given), the normalized growth is 0.976 ± 0.038.

As to `CN(C)[C@@H]1C(O)=C(C(=O)NCN2CCCC2)C(=O)[C@@]2(O)C(O)=C3C(=O)c4c(O)cccc4[C@@](C)(O)[C@H]3C[C@@H]12`, the normalized growth came to 0.854 ± 0.027.

With `Cc1c(N(C)CS(=O)(=O)O)c(=O)n(-c2ccccc2)n1C`, the normalized growth was determined as 1 ± 0.032.

As to `NCC(O)CC(=O)O` (stereo not given), the normalized growth worked out at 1.14 ± 0.047. Under `CC(=O)OCC(CCn1cnc2cnc(N)nc21)COC(C)=O` stands 1.08 ± 0.028; under `C[C@H](CCC(=O)O)[C@H]1CC[C@H]2[C@@H]3[C@H](O)C[C@@H]4C[C@H](O)CC[C@]4(C)[C@H]3CC[C@]12C`, 1.09 ± 0.058; under `CC[C@H](C)C(=O)O[C@H]1CCC=C2C=C[C@H](C)[C@H](CC[C@@H]3C[C@@H](O)CC(=O)O3)[C@H]21`, 0.969 ± 0.022.

Consider `Nc1cc(C(Cl)=C(Cl)Cl)c(S(N)(=O)=O)cc1S(N)(=O)=O`, for which the normalized growth came to 1.01 ± 0.036.

With `C1CNCCN1`, the normalized growth turned out to be 1.001 ± 0.01.

`COc1c2occc2c(OC)c2c(=O)cc(C)oc12` showed a normalized growth of 0.867 ± 0.016. In turn, `O=c1oc2ccccc2c(O)c1Cc1c(O)c2ccccc2oc1=O` showed a normalized growth of 1.04 ± 0.011. `CN1CCN(CCCN2c3ccccc3Sc3ccc(Cl)cc32)CC1` returned a normalized growth of 0.982 ± 0.025. `COc1ccc(C2CNC(=O)C2)cc1OC1CCCC1` (stereo not given) displayed a normalized growth of 1 ± 0.02. For `O=C1OCCN1/N=C/c1ccc([N+](=O)[O-])o1` the value was 0.106 ± 0.012. For `NC(=O)c1ccc([N+](=O)[O-])cc1Cl` the value was 0.895 ± 0.043. Consider `CC(C)[C@H](N)C(=O)OCC(CO)OCn1cnc2c(=O)nc(N)[nH]c21` (stereo not given in full), for which the normalized growth is 1.02 ± 0.027. For `CCC(=O)O[C@]1(C(=O)CCl)[C@@H](C)C[C@H]2[C@@H]3CCC4=CC(=O)C=C[C@]4(C)[C@@]3(F)[C@@H](O)C[C@@]21C` the value was 0.923 ± 0.05; for `c1ccc([C@H]2CN3CCSC3=N2)cc1`, 0.906 ± 0.13; for `Cc1c(O)c(=O)ccn1C`, 0.983 ± 0.036. `CC(C)NCC(O)c1ccc2ccccc2c1` (stereo not given) registered a normalized growth of 0.858 ± 0.0091. Under `CC(=O)O[C@]1(C(C)=O)CC[C@H]2[C@@H]3C[C@H](C)C4=CC(=O)CC[C@]4(C)[C@H]3CC[C@@]21C` stands 1.1 ± 0.036. In turn, `O=C(O)c1cc(-c2ccccc2)nc2ccccc12` returned a normalized growth of 0.876 ± 0.054. In turn, `CN(C)c1nc(N(C)C)nc(N(C)C)n1` displayed a normalized growth of 1.06 ± 0.061. Under `COc1ccccc1OCC(O)CN1CCN(CC(=O)Nc2c(C)cccc2C)CC1` (stereo not given) stands 0.946 ± 0.025. As to `NC(=O)C(c1ccccc1)(c1ccccc1)[C@@H]1CCN(CCc2ccc3c(c2)CCO3)C1`, the normalized growth is 0.931 ± 0.031. Compound `CCCNCC(O)COc1ccccc1C(=O)CCc1ccccc1` (stereo not given) registered a normalized growth of 1.32 ± 0.02. As to `C[C@H]1C[C@@H]2[C@H]([C@@H](O)C[C@@]3(C)[C@H]2CC[C@]3(O)C(=O)CO)[C@@]2(C)C=CC(=O)C=C12`, the normalized growth came to 1.18 ± 0.14. Compound `O=C1CC2(CCCC2)CC(=O)N1CCCCN1CCN(c2ncccn2)CC1` had a normalized growth of 0.96 ± 0.02. For `CC[C@H]1OC(=O)[C@H](C)[C@@H](O[C@H]2C[C@@](C)(OC)[C@@H](O)[C@H](C)O2)[C@H](C)[C@@H](O[C@@H]2O[C@H](C)C[C@H](N(C)C)[C@H]2O)[C@](C)(O)C[C@@H](C)[C@@H]2N[C@@H](COCCOC)O[C@H]([C@H]2C)[C@]1(C)O` the value was 1.02 ± 0.015; for `O=c1cc[nH]c(=S)[nH]1`, 0.954 ± 0.037.

For `CC(=O)OC1CC2CCC1(C)C2(C)C` (stereo not given), the normalized growth was 1.21 ± 0.048.

As for `CC1Cc2ccccc2N1NC(=O)c1ccc(Cl)c(S(N)(=O)=O)c1` (stereo not given), the normalized growth was 0.988 ± 0.02. The compound `CCC(=O)c1c(O)cc(O)cc1O` had a normalized growth of 1.09 ± 0.016. `FC(F)(Cl)C(F)(F)Cl`: the normalized growth is 1.09 ± 0.029. For `Nc1ccc(S(=O)(=O)Nc2ccnn2-c2ccccc2)cc1` the value was 1.01 ± 0.058; for `CO/N=C(\C(=O)N[C@@H]1C(=O)N2C(C(=O)O)=C(COC(N)=O)CS[C@H]12)c1ccco1`, 0.616 ± 0.018. Under `O=C(NCC(O)CO)c1c(I)c(C(=O)NCC(O)CO)c(I)c(N(CCO)C(=O)CO)c1I` (stereo not given) stands 1.06 ± 0.053; under `CC(=O)Nc1ncc([N+](=O)[O-])s1`, 0.899 ± 0.018. With `CC12CCC(CC1)C(C)(C)O2`, the normalized growth was 0.988 ± 0.08. `CCCCCCCCCCCCCCCC(=O)O[C@@H]1[C@@H](O)[C@@H](O)[C@@H]([C@H](NC(=O)[C@@H]2C[C@@H](CCC)CN2C)[C@H](C)Cl)O[C@@H]1SC` yielded a normalized growth of 0.953 ± 0.024. Consider `Cc1cc(CC(=O)O)n(C)c1C(=O)c1ccc(Cl)cc1`, for which the normalized growth stood at 1 ± 0.05. `COc1ccc2cc(C(C)C(=O)O)ccc2c1` (stereo not given) registered a normalized growth of 1.07 ± 0.032.

Compound `CC(C)C[C@@H]1NC(=O)[C@H](CCCN)NC(=O)[C@H](C(C)C)NC(=O)[C@H](Cc2ccc(O)cc2)N[C@@H](CCC(=O)O)C(=O)N[C@@H](CC(N)=O)C(=O)[C@@H](Cc2ccccc2)NC(=O)[C@H](Cc2ccccc2)NC(=O)[C@@H]2CCCN2C(=O)[C@@H](Cc2ccccc2)NC1=O` displayed a normalized growth of 0.992 ± 0.1.

As to `Nc1ccc2cc3ccc(N)cc3nc2c1`, the normalized growth was 0.57 ± 0.074. Take `CC1(C)O[C@@H]2C[C@H]3[C@@H]4CCC5=CC(=O)C=C[C@]5(C)[C@@]4(F)[C@@H](O)C[C@]3(C)[C@]2(C(=O)CO)O1`: the normalized growth worked out at 0.891 ± 0.017. Consider `O=C(O)CCCc1ccccc1`, for which the normalized growth amounted to 0.998 ± 0.044. `Cc1cnc(NC(=O)C2=C(O)c3ccccc3S(=O)(=O)N2C)s1`: the normalized growth was 1.03 ± 0.1. For `O=C(O)COC(=O)Cc1ccccc1Nc1c(Cl)cccc1Cl` the value was 1.68 ± 0.2; for `C[C@@H]1C[C@H]2[C@@H]3CCC4=CC(=O)C=C[C@]4(C)[C@@]3(F)[C@@H](O)C[C@]2(C)[C@@]1(O)C(=O)CO`, 0.992 ± 0.067; for `OC1(c2ccc(Cl)c(C(F)(F)F)c2)CCN(CCCC(c2ccc(F)cc2)c2ccc(F)cc2)CC1`, 0.849 ± 0.038. For `O=C1C2CC3CC1CC(O)(C3)C2` the value was 0.916 ± 0.049; for `Cc1nnc(NS(=O)(=O)c2ccc(N)cc2)s1`, 1.01 ± 0.026. For `CC1CC(OC(=O)C(O)c2ccccc2)CC(C)(C)N1C` (stereo not given) the value was 1.07 ± 0.061. In the case of `C1CCN2C[C@@H]3C[C@@H](CN4CCCC[C@@H]34)[C@H]2C1`, the normalized growth was found to be 1.13 ± 0.04. For `CC1=Nc2ccc(Cl)cc2S(=O)(=O)N1` the value was 0.927 ± 0.058. Compound `CC(C(=O)O)c1ccc(N2Cc3ccccc3C2=O)cc1` (stereo not given) showed a normalized growth of 0.982 ± 0.048. For `CCN1CCN(C(=O)N[C@@H](C(=O)N[C@@H]2C(=O)N3C(C(=O)O)=C(CSc4nnnn4C)CS[C@H]23)c2ccc(O)cc2)C(=O)C1=O` the value was 0.941 ± 0.089. Compound `CN(C)CCOc1ccc(/C(=C(/CCCl)c2ccccc2)c2ccccc2)cc1` gave a normalized growth of 1.08 ± 0.11.

The record behind these values is the supplement of paper PMC6331611.
